Experimental findings from US20040054158A1 are described below.

Experiment [1] concerns the target CD28 expressed on cells (COS transfectants). Description: flow cytometry on transfected cells.
For experiment [2], the target named is CTLA-4 expressed on cells (COS transfectants). Description: flow cytometry on transfected cells. (In general: Flow cytometry measures light scatter and fluorescence of single cells or particles in a stream.)

Results are given in words; binding and its absence hold for the method and conditions named. Where a sequence is shown, tags or fusion partners need not be part of it.

B1: murine GL50-1Ig fusion protein (Fc fusion)
chain: ETEVGAMVGSNVVLSCIDPHRRHFNLSGLYVYWQIENPEVSVTYYLPYKSPGINVDSSYKNRGHLSLDSMKQGNFSLYLKNVTPQDTQEFTCRVFMNTATELVKILEEVVRLRVAANFSTPVISTSDSSNPGQERTYTCMSKNGYPEPNLYWINTTDNSLIDTALQNNTVYLNKLGLYDVISTLRLPWTSRGDVLCCVENVALHQNITSISQAESFTGNNTKNPQETHNNEEPRGPTIKPCPPCKCPAPNLEGGPSVFIFPPKIKDVLMISLSPIVTCVVVDVSEDDPDVQISWFVNNVEVHTAQTQTHREDYNSTLRVVSALPIQHQDWMSGKAFACAVNNKDLPAPIERTISKPKGSVRAPQVYVLPPPEEEMTKKQVTLTCMVTDFMPEDIYVEWTNNGKTELNYKNTEPVLDSDGSYFMYSKLRVEKKNWVERNSYSCSVVHEGLHNHHTTKSFSRTPGK
As to B1, the binding entry in experiment [1] and in experiment [2] was “no binding” throughout.
